PubChem BioAssay AID445 (National Center for Advancing Translational Sciences (NCATS), 2006)
Some of the results follow. These are further read-outs of the screen, such as a control signal, another cell line or another target. No call is given for them. Compounds called inactive in the main read-out are mostly missing here. The note in brackets gives the kind of curve behind each potency; many fits are weak.

Experiment: IkB Signaling
Conditions: ABC-DLBCL IkBa-CBG/CBR dual luciferase ratio (green luciferase fused to IkBa over red control in OCI-Ly3 lymphoma cells), 4 h
Summary of the method: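 Curves were fitted separately to fusion (green), unfused (red) and ratio luminescence, then classed by r2, magnitude and activity. Cells: OCI-Ly3, 4 h compound plus doxycycline at 37C; 10 uM MG-132 defined full response.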

[1] = measured here: control luc red channel unless noted

Oc1ccc(-c2nc(-c3ccccc3)c(-c3ccc(Br)cc3)[nH]2)cc1
AC50 [1]: 12.6 µM [falling, partial curve]

O=C(COC(=O)C(Cc1c[nH]c2ccccc12)NC(=O)c1ccc(Cl)cc1)c1ccc(Cl)cc1 (stereo not drawn)
AC50 [1]: 15.8 µM [falling, partial curve]

COc1ccc(-c2cc(=O)c3cc(OCC(=O)OC(C)C)ccc3o2)cc1
AC50 [1]: 31.6 µM [falling, single point]

COc1ccccc1-c1nnc2sc(-c3ccc(N(C)C)cc3)nn12
AC50 [1]: 0.251 µM [rising, partial curve]

Cc1ccc(Cn2c(SCC(=O)NCc3ccccc3Cl)nc3ccsc3c2=O)cc1
AC50 [1]: 10 µM [rising, partial curve]

CCOC(=O)c1cc2c(=O)n3ccccc3nc2n(Cc2ccco2)c1=NC(=O)c1cccc(F)c1
AC50 [1]: 3.98 µM [falling, full curve]

COc1cc(NC(=O)CCCc2nnc3n(CC(C)C)c(=O)c4sccc4n23)cc(OC)c1
AC50 [1]: 39.8 µM [falling, single point]

CC(C)c1ccc(NS(=O)(=O)c2ccc3[nH]cc(C(=O)NCC4CCCO4)c(=O)c3c2)cc1 (stereo not drawn)
AC50 [1]: 7.94 µM [falling, partial curve]

CCN(C(=O)c1ccc(C(C)(C)C)cc1)c1nnc(Cn2nnc3ccccc32)s1
AC50 [1]: 7.94 µM [falling, partial curve]

CN(C)S(=O)(=O)c1ccc2c(c1)N(CC(=O)Nc1ccc(F)cc1)C(=O)CS2
AC50 [1]: 12.6 µM [falling, partial curve]

Cc1cccc(NC(=O)c2sc3nc4c(cc3c2N)CN(C(C)C)CC4)c1
AC50 [1]: 15.8 µM [falling, partial curve]

O=c1oc2ccc3ccccc3c2cc1-c1nnc(-c2ccccc2)o1
AC50 [1]: 25.1 µM [falling, single point]

Cc1cccc(N2CCN(C(=O)CN3C(=O)COc4ccc(S(=O)(=O)N5CCOCC5)cc43)CC2)c1C
AC50 [1]: 31.6 µM [falling, single point]

CCC1CCCCN1C(=O)CSc1nc(-c2ccc(OC)c(OC)c2)cc(C(F)(F)F)n1 (stereo not drawn)
AC50 [1]: 20 µM [falling, partial curve]

Cc1ccc(Cl)cc1N1CCN(C(=O)CCCn2c(=O)[nH]c3ccc(Br)cc3c2=O)CC1
AC50 [1]: 7.94 µM [falling, partial curve]

CC(C)Oc1cccc(C2CC(=O)Nc3cc4c(cc32)OCO4)c1 (stereo not drawn)
AC50 [1]: 0.251 µM [rising, partial curve]

CCOC(=O)c1cccc2c1-c1ccccc1/C2=N/O
AC50 [1]: 15.8 µM [falling, partial curve]

O=C(NCCS(=O)(=O)N1CCN(c2ccc(F)cc2)CC1)c1cccc(C(F)(F)F)c1
AC50 [1]: 10 µM [falling, partial curve]

Cc1ccc(NC(=O)c2c(NC(=O)Cc3ccccc3)sc3c2CCCC3)cc1
AC50 [1]: 3.98 µM [falling, partial curve]

CCOc1ccc(CCNC(=O)CN2C(=O)COc3ccc(S(=O)(=O)N4CCCCCC4)cc32)cc1
AC50 [1]: 31.6 µM [falling, partial curve]

CC(=O)Nc1ccc(NC(=O)CCSCCc2ccccn2)cc1
AC50 [1]: 0.158 µM [rising, full curve, poor fit]

O=C(NCc1cccnc1)c1ccc(COc2ccccc2Br)o1
AC50 [1]: 20 µM [falling, partial curve]

CN(C)c1ccc(CNC(=O)c2ccc(NC(=O)N3CCCCc4ccccc43)cc2)cc1
AC50 [1]: 25.1 µM [falling, single point]

COc1ccc(-n2c(SCC(=O)Nc3cccc(C)c3C)nc3c([nH]c4ccccc43)c2=O)cc1
AC50 [1]: 31.6 µM [falling, partial curve, poor fit]

N#Cc1c(-n2ncnc2-c2cccc(Br)c2)sc2c1CCCCC2
AC50 [1]: 0.794 µM [falling, full curve]

O=S(=O)(Nc1cc(F)ccc1F)c1ccc2[nH]c3c(c2c1)CCCCC3
AC50 [1]: 0.2 µM [rising, full curve]

CC1=CCC2(CO)COC(c3ccccc3O)C1C2 (stereo not drawn)
AC50 [1]: 5.01 µM [rising, single point]

O=C(CCn1ccc2cc(S(=O)(=O)N3CCCC3)ccc21)NCc1cccc(Cl)c1
AC50 [1]: 25.1 µM [falling, single point]

OC(COc1ccc2ccccc2c1Br)Cn1ccnc1 (stereo not drawn)
AC50 [1]: 15.8 µM [falling, partial curve]

c1ccc(-c2noc(-c3cccnc3)n2)cc1
AC50 [1]: 12.6 µM [falling, partial curve]

Cc1ccc(NC(=O)c2ccc(CNS(=O)(=O)c3ccc4c(c3)C(C)(C)C(=O)N4C)cc2)cc1C
AC50 [1]: 3.98 µM [falling, partial curve]

CC(=O)N1c2ccc(S(=O)(=O)NCC3CCC(C(=O)Nc4ccc(C)c(C)c4)CC3)cc2CC1C (stereo not drawn)
AC50 [1]: 10 µM [falling, partial curve]

Cc1cccc(NC(=O)c2cc3ccccc3o2)c1
AC50 [1]: 5.01 µM [falling, partial curve]

COc1ccccc1N(C(=O)c1snc(C(N)=O)c1N)C(C(=O)NCCC(C)C)c1ccco1 (stereo not drawn)
AC50 [1]: 15.8 µM [falling, partial curve]

CSCCC1NC2(C(=O)Nc3c(C)cc(Cl)cc32)[C@@H]2C(=O)N(C3CCCC3)C(=O)[C@H]12 (stereo partly drawn)
AC50 [1]: 12.6 µM [falling, partial curve]

COc1ccc(-c2cc3n(n2)CCc2nc4ccccc4n2-3)cc1
AC50 [1]: 3.98 µM [falling, partial curve]

O=C(Nc1cccc(C(=O)N2CCN(c3cccc(Cl)c3)CC2)c1)c1nsc2ccccc12
AC50 [1]: 0.0794 µM [rising, full curve]

Cc1ccccc1Cn1c2ccccc2c2cnn(CC(=O)NCC(C)c3ccccc3)c(=O)c21 (stereo not drawn)
AC50 [1]: 2 µM [falling, full curve]

CCOc1ccc(C2c3c(oc4ccc(C)cc4c3=O)C(=O)N2CCCN(C)C)cc1 (stereo not drawn)
AC50 [1]: 3.16 µM [rising, single point]

CCOC(=O)C1CCN(C(=O)c2ccc(NC(=O)c3nsc4ccccc34)cc2)CC1
AC50 [1]: 0.501 µM [falling, full curve]

COc1ccc(CNC(=O)C2CCCN(S(=O)(=O)c3ccc4c(c3)CCCN4C(C)=O)C2)cc1 (stereo not drawn)
AC50 [1]: 0.158 µM [falling, full curve, poor fit]

COc1ccccc1N1CCN(S(=O)(=O)c2ccc(F)c(C(=O)Nc3ccc(C)c(F)c3)c2)CC1
AC50 [1]: 3.16 µM [falling, partial curve, poor fit]

COc1ccc(CCNC(=O)c2cc(Sc3cccc(Cl)c3)nc3ccccc23)cc1OC
AC50 [1]: 31.6 µM [falling, single point]

CCc1ccc2[nH]c(=O)c(CN(CCCN3CCOCC3)C(=O)Nc3ccc(F)cc3)cc2c1
AC50 [1]: 12.6 µM [falling, partial curve]

COc1ccc(CCNc2oc(-c3ccc(OC)c(OC)c3)nc2C#N)cc1
AC50 [1]: 20 µM [falling, partial curve]

O=C(Nc1cc(Cl)cc(Cl)c1)c1ccc(F)c(S(=O)(=O)N2CCCCCC2)c1
AC50 [1]: 5.01 µM [falling, partial curve]

Cc1ccc(C(C)C)c(OCCn2cc(C(=O)c3ccco3)c3ccccc32)c1
AC50 [1]: 15.8 µM [falling, partial curve]

COc1ccccc1N1CCN(C(=O)c2oc3ccccc3c2NC(=O)C(C)Oc2ccccc2)CC1 (stereo not drawn)
AC50 [1]: 20 µM [falling, partial curve]

Cc1ccc(C(=O)CC2(O)C(=O)N(CCc3ccccc3)c3ccc(Br)cc32)o1 (stereo not drawn)
AC50 [1]: 25.1 µM [falling, partial curve]

O=C(c1ccc2c(c1)OCCO2)N(Cc1cccnc1)c1nc2ccc(F)cc2s1
AC50 [1]: 39.8 µM [falling, single point]

CC(C)Sc1nc2c(cnn2-c2ccccc2)c(=O)[nH]1
AC50 (measured here: IkB-luc green channel): 31.6 µM [rising, partial curve]
AC50 (measured here: control luc red channel): 7.94 µM [falling, partial curve]

CCN(CC)CCCNC(=O)c1cc(-c2ccc(OC)c(OC)c2)on1
AC50 [1]: 25.1 µM [falling, single point]

Cc1ccc(NC(=O)C2CCCN2S(=O)(=O)c2cccc3cccnc23)cc1 (stereo not drawn)
AC50 [1]: 0.316 µM [rising, full curve]

CC1CN(C(=O)N2CCC(C(=O)NC3CCCCCC3)CC2)c2cc(Cl)ccc2O1 (stereo not drawn)
AC50 [1]: 20 µM [rising, partial curve]

O=C(Cn1cc(SCc2cccc(Cl)c2)c2ccccc21)N1CCOCC1
AC50 [1]: 7.94 µM [falling, partial curve]

Cn1nc(CC(=O)Nc2ccc3c(c2)OCCO3)c2ccccc2c1=O
AC50 [1]: 2.51 µM [falling, full curve, poor fit]

Cc1cccc(NC(=O)CSc2nc3ccc(NC(=O)c4cccs4)cc3s2)c1
AC50 [1]: 3.98 µM [falling, full curve]

CC(C)c1ccc(OCc2cc(=O)n3c4c(sc3n2)CCCC4)cc1
AC50 [1]: 0.631 µM [rising, partial curve]

COc1ccc(OCC(=O)Nc2cc(-c3cccc(Cl)c3)nn2-c2ccccc2)cc1
AC50 [1]: 2.51 µM [rising, full curve]

CCc1ccc(Nc2cc(C)nc3nc(Cc4ccc(Cl)cc4)nn23)cc1
AC50 [1]: 25.1 µM [falling, single point]

CCOC(=O)c1ccc(CSc2nnc3cc(C)c4ccccc4n23)cc1
AC50 [1]: 39.8 µM [falling, single point]

COc1ccccc1NC(=O)CN(c1ccc(C(C)C)cc1)S(=O)(=O)c1c(C)noc1C
AC50 [1]: 7.94 µM [falling, full curve]
